According to patent US20240116990A1 (Mayo Foundation for Medical Education and Research, priority 2022, published 2024):

Test: peptide made by a vendor
Settings: whole synthesis, acetate salt, one disulfide bridge, sequence written open

Sequence: RALLTAPRSLRRSSCFGHKIDRINHVSNLGCNSFRYRITAREDKQGWA
- final HPLC purity: 97.9%

End groups of sequences in plain letters are not given here.
